The values below come from publication PMC12508475.

By UniProt entry, the sequences of proteins in these tests, tags left out.
UniProt P28033: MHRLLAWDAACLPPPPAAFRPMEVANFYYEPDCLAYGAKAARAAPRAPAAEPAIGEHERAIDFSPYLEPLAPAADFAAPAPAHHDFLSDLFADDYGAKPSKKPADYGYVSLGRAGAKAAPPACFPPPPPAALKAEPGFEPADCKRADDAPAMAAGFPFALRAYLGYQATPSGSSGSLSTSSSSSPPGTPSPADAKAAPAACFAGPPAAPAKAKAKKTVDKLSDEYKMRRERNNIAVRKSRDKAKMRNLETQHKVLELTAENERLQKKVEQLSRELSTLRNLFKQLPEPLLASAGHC
UniProt Q8BTW9: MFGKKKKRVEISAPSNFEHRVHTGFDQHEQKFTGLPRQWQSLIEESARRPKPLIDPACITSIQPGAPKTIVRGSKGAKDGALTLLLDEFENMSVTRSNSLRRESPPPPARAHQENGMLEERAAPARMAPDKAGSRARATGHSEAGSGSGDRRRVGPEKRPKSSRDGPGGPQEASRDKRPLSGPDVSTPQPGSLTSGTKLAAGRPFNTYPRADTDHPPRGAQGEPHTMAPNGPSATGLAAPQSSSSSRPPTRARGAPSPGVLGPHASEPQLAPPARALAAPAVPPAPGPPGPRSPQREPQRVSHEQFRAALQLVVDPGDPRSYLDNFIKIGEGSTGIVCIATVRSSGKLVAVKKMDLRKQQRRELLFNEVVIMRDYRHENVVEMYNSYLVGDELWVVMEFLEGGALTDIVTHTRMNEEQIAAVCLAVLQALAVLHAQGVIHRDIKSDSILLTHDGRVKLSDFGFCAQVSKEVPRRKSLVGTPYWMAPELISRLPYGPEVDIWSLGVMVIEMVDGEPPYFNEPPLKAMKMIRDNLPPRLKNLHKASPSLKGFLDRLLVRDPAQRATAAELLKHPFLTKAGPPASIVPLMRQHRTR

Results are given in words; binding and its absence hold for the method and conditions named. Binding seen in cells or lysates may run through a third protein. Some results given as binding are weak or reduced against the parent protein; the word gives no strength.

The assay deals with CCAAT/enhancer-binding protein β (C/EBPβ), endogenous in 3T3-L1 preadipocytes (mouse (endogenous in 3T3-L1)) (UniProt P28033). The assay can be described thus: co-IP; 3T3-L1 preadipocytes pretreated with or without 30 nM ND201651, then MDI; co-IP on day 1; 100 μg protein, antibody overnight at 4 °C, protein G agarose.

On to “p21-activated kinase 4 (PAK4), endogenous in 3T3-L1 preadipocytes (from UniProt Q8BTW9 1-593)”, for which the binding entry was “binds”.
